Measured values published in ChEMBL document CHEMBL5120853, “Tolypocladamide H and the Proposed Tolypocladamide NRPS in Tolypocladium Species” (J Nat Prod, 2022).
Where “and” joins values, the source holds several entries; their conditions need not be identical. Identical values can stand only once.

Tested on: Staphylococcus aureus
Assay: Antibacterial activity against Staphylococcus aureus ATCC 25923 assessed as inhibition of bacterial growth
Assay type: functional
Outline: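 Strains grown in ATCC-recommended media in culture tubes at 37 °C with shaking at 225 rpm for 3–8 h, back-diluted to about 10^6 cfu/mL, and incubated in triplicate in 384-well plates with a dilution series of test agent. DMSO vehicle served as negative control; linezolid (E. faecium) and ampicillin (S. aureus) were positive controls. MIC recorded.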

MIC: 0.5 µg/mL and 1.4 µM
Structure (SMILES): CC1(C)S[C@@H]2[C@H](NC(=O)[C@H](N)c3ccccc3)C(=O)N2[C@H]1C(=O)O [AMPICILLIN]
